Reference: patent EP1333824B1, “TREATMENT OF SEXUAL DYSFUNCTION WITH BOMBESIN RECEPTOR ANTAGONISTS” (Warner-Lambert Company LLC, priority 2000, dated 2002)

Test: Plasma sexual hormone levels by radioimmunoassay
Assay type: in vivo, rat
Settings: Compound (1) 3-10mg/kg 1h before blood collection; vs vehicle

COc1ccc(C2(CNC(=O)[C@](C)(Cc3c[nH]c4ccccc34)NC(=O)Nc3ccc([N+](=O)[O-])cc3)CCCCC2)nc1 [Compound (1), (S) 3-(1H-Indol-3-yl)-N-[1-(5-methoxy-pyridin-2-yl)-cyclohexyl-methyl]-2-methyl-2-[3-(4-nitro-phenyl)-ureido]-propionamide]
no effect: FSH plasma levels | oestradiol plasma levels | prolactin plasma levels
